The record followed here is the supplement of paper PMC10398353.

Values joined by “and” are separate entries in the source; they are usually repeats but may differ in a detail not shown here. Equal entries are not always repeated. Structures can show the parent of a compound that is named as a salt. ± gives the standard deviation of the averaged measurements. This is one part of the list. This is a noisy data set.

The subject of this assay is Salmonella enterica serovar Typhimurium ST313 D23580. Put plainly: normalized bacterial growth (OD600 20 h minus 0 h, interquartile-mean normalized) (fraction of plate interquartile mean); higher = more bacterial growth (less inhibition). The conditions noted are these: LPM (pH 5.8, low phosphate, low Mg2+), concentration: 10 µM, temperature: 37 °C.
In turn, `COc1ccc2c(c1)CC[C@@H]1[C@@H]2CC[C@]2(C)[C@@H](NCCCCCCN3C(=O)CCC3=O)CC[C@@H]12` gave a normalized bacterial growth of 0.692. Under `CN1CCOC(c2ccccc2)c2ccccc2C1` (stereo unspecified) [Nefopam hydrochloride] stands 0.95. To `CN1CCOC(c2ccccc2)c2ccccc2C1` (stereo unspecified) belongs 0.883; to `N=C(N)NCCCCN` [Agmatine sulfate], 1.15. As to `CN1CCC(=C2c3ccccc3CCc3sccc32)CC1`, the normalized bacterial growth is 1.13. Turning to `O=c1c2ccccc2nc2n1CCc1c-2[nH]c2ccccc12`, the normalized bacterial growth amounted to 1.1.

`O=C(/C=C/C=C/c1ccc2c(c1)OCO2)N1CCCCC1`: the normalized bacterial growth was determined as 1.

In the case of `CCC(=O)OCC(=O)[C@@]1(OC(=O)CC)[C@@H](C)C[C@H]2[C@@H]3CCC4=CC(=O)C=C[C@]4(C)[C@@]3(Cl)[C@@H](O)C[C@@]21C` [Beclomethasone dipropionate], the normalized bacterial growth worked out at 0.614. To `CCC(=O)OCC(=O)[C@@]1(OC(=O)CC)[C@@H](C)C[C@H]2[C@@H]3CCC4=CC(=O)C=C[C@]4(C)[C@@]3(Cl)[C@@H](O)C[C@@]21C` belongs 0.569; to `COc1ccc(-c2cc(=O)c3c(O)cc(OC)cc3o2)cc1`, 0.608. `CC(C)=CCC/C(C)=C/CC/C(C)=C/CC/C(C)=C/CO`: the normalized bacterial growth was 0.934. To `Oc1cc2c(c(Cl)c1O)CCNCC2c1ccccc1` (stereo unspecified) [()-6-Chloro-PB hydrobromide] belongs 0.941; to `O=C(O)CCCCC1CCSS1` (stereo not drawn) [()-alpha-Lipoic Acid], 0.904.

With `COCC(=O)O[C@]1(CCN(C)CCCc2nc3ccccc3[nH]2)CCc2cc(F)ccc2[C@@H]1C(C)C` [Mibefradil dihydrochloride], the normalized bacterial growth worked out at 1.29.

On to `CCN(CC)Cc1cc(Nc2ccnc3cc(Cl)ccc23)ccc1O`, for which the normalized bacterial growth turned out to be 1.02.

The molecule `CCN(CC)Cc1cc(Nc2ccnc3cc(Cl)ccc23)ccc1O` [Amodiaquin dihydrochloride dihydrate] returned a normalized bacterial growth of 1.08. Under `COc1ccccc1N1CCN(CCCNc2cc(=O)n(C)c(=O)n2C)CC1` [Urapidil hydrochloride] stands 1.04; under `CN/C(=N\c1ccc(C2=NNC(=O)CC2C)cc1)NC#N` (stereo unspecified), 1.05. Under `OC[C@H]1O[C@@](CO)(O[C@H]2O[C@H](CO)[C@@H](O)[C@H](O)[C@H]2O)[C@@H](O[C@H]2O[C@H](CO)[C@@H](O)[C@H](O)[C@H]2O)[C@@H]1O` stands 1.14; under `O=C(CCCN1CCC(O)(c2cccc(C(F)(F)F)c2)CC1)c1ccc(F)cc1` [Trifluperidol hydrochloride], 0.908. To `COc1ccc(CCNC[C@@H](O)c2ccc(O)cc2)cc1OC` [R(-)-Denopamine] belongs 1.09; to `COc1ccc2c(c1)O[C@H]1c3ccc(OC)cc3OC[C@@H]21`, 1.12.

`CC(C)NCC(O)c1cc(O)cc(O)c1` (stereo unspecified): the normalized bacterial growth amounted to 1.13. Take `CC(C)NCC(O)c1cc(O)cc(O)c1` (stereo unspecified) [Metaproterenol hemisulfate]: the normalized bacterial growth was 0.8. To `O=[N+]([O-])c1cc2nc(O)c(O)nc2cc1[N+](=O)[O-]` belongs 1.27; to `CC(=O)/C(C)=N/O` ["2,3-Butanedione monoxime"], 0.537. Under `CCCCCCCCCCCCCCSCC(=O)O` [Tetradecylthioacetic acid] stands 1.1; under `CCCn1cnc2c1c(=O)n(CCCCC(C)=O)c(=O)n2C` [Propentofylline], 1.05.

As for `CC(C)(CO)Cc1cc(C(C)(C)C)c(O)c(C(C)(C)C)c1`, the normalized bacterial growth was determined as 0.343. Under `O=C(O)CN(CCN(CC(=O)O)CC(=O)O)CCN(CC(=O)O)CC(=O)O` [Diethylenetriaminepentaacetic acid] stands 0.144; under `C#CCN(C)CCCOc1ccc(Cl)cc1Cl` [Clorgyline hydrochloride], 0.828. Molecule `O=C(O)CCNC(=O)c1ccc(/N=N/c2ccc(O)c(C(=O)O)c2)cc1` [Balsalazide Sodium] returned a normalized bacterial growth of 1.1. In the case of `C[n+]1ccccc1/C=N/O`, the normalized bacterial growth is 0.765. Under `O=c1cc(-c2ccc(O)c(O[C@@H]3O[C@H](CO)[C@@H](O)[C@H](O)[C@H]3O)c2)oc2cc(O[C@@H]3O[C@H](CO)[C@@H](O)[C@H](O)[C@H]3O)cc(O)c12` stands 1.32; under `CCC(C)n1ncn(-c2ccc(N3CCN(c4ccc(OCC5COC(Cn6cncn6)(c6ccc(Cl)cc6Cl)O5)cc4)CC3)cc2)c1=O` (stereo unspecified), 0.736. Under `COc1ccc(/C=C/C(=O)c2cc(O)ccc2O)cc1` stands 0.747; under `Cc1cccc(Nc2ccccc2C(=O)O)c1C`, 1.06. To `C=CCSCC=C` belongs 0.905; to `CN(CCOc1ccc(C[C@H](Nc2ccccc2C(=O)c2ccccc2)C(=O)O)cc1)c1ccccn1`, 1.14. Regarding `O=C1c2ccccc2C(=O)C1(O)C1(O)C(=O)c2ccccc2C1=O`, the normalized bacterial growth was found to be 1.2. `CC(N)C(=O)OC(C)(C)Cc1ccc(Cl)cc1` (stereo unspecified) returned a normalized bacterial growth of 0.927. Molecule `CC(N)C(=O)OC(C)(C)Cc1ccc(Cl)cc1` (stereo unspecified) [Alaproclate hydrochloride] yielded a normalized bacterial growth of 0.986. `C[C@H]1[C@H](OC(=O)CCC(=O)O)O[C@@H]2O[C@@]3(C)CC[C@H]4[C@H](C)CC[C@@H]1[C@@]24OO3` returned a normalized bacterial growth of 0.919. To `O=C1OC(CN2CCOCC2)CN1/N=C/c1ccc([N+](=O)[O-])o1` (stereo unspecified) [Furaltadone hydrochloride] belongs 1.14; to `O=C1OC(CN2CCOCC2)CN1/N=C/c1ccc([N+](=O)[O-])o1` (stereo unspecified), 0.825. Under `CC[n+]1c(-c2ccccc2)c2cc(N)ccc2c2ccc(N)cc21` stands 0.931; under `C[n+]1ccccc1C=NO`, 1.05; under `CNCCCN1c2ccccc2CCc2ccccc21` [Desipramine hydrochloride], 0.763.

Molecule `O=C(O)[C@]1(O)C[C@@H](O)[C@@H](O)[C@H](O)C1` came in with a normalized bacterial growth of 1.2.

`O=C1CCC(N2C(=O)c3ccccc3C2=O)C(=O)N1` (stereo unspecified) [()-Thalidomide] came in with a normalized bacterial growth of 0.835. On to `CC1(C)C[C@@H]2C(=O)CC[C@H]3O[C@]3(C)CC[C@H]21`, for which the normalized bacterial growth is 0.956. Turning to `CCN(CC)CCNC(=O)COc1ccc(OC)cc1`, the normalized bacterial growth was 1.27. Under `CCCCCCCCCCCCCCCCCC(=O)NCC(COP(=O)([O-])OCC[N+](C)(C)C)OCC` (racemic) [rac-2-Ethoxy-3-octadecanamido-1-propylphosphocholine] stands 1.36. In the case of `CC(=O)OCC1=C(C(=O)O)N2C(=O)[C@@H](NC(=O)Cc3cccs3)[C@H]2SC1` [Cephalothin sodium], the normalized bacterial growth stood at 1.13.

Molecule `CCOc1ccc(NC(=O)CC(C)O)cc1` (stereo unspecified) registered a normalized bacterial growth of 1.22. Under `COc1c(O)c2c(=O)cc(OC)c3c4c(OC)cc(=O)c5c(O)c(OC)c6c(c(c1CC(C)=C6C(C)=O)c23)c54` stands 0.821.

`COc1c(O)cc2oc3cc(O)c(CC=C(C)C)c(O)c3c(=O)c2c1CC=C(C)C` [alpha-MANGOSTIN] displayed a normalized bacterial growth of 0.979. Under `C=CCCCCCCCCC(=O)O` stands 1.12; under `COC(=O)C[C@H]1C(C)(C)[C@@H](OC(C)=O)[C@@H]2CC3C4CC(=O)O[C@@H](c5ccoc5)[C@]4(C)CCC3[C@@]1(C)C2=O` (stereo partly specified), 0.846.

In the case of `CC1(C)S[C@@H]2[C@H](NC(=O)Cc3ccccc3)C(=O)N2[C@H]1C(=O)O`, the normalized bacterial growth was 1.05.

`CCCCc1nc(Cl)c(CO)n1Cc1ccc(-c2ccccc2-c2nnn[nH]2)cc1` showed a normalized bacterial growth of 0.998. Under `CC(C)=CCOc1cc2oc(=O)ccc2cc1O` stands 1.11. To `O=C1C(SCCO)=C(SCCO)C(=O)c2ccccc21` belongs 0.903. To `COc1cc(/C=C/C(=O)CC(=O)/C=C/c2ccc(O)c(OC)c2)ccc1O` belongs 0.626 ± 0.18. Regarding `Cc1cc2nc3c(=O)[nH]c(=O)nc-3n(CC(O)C(O)C(O)COP(=O)(O)O)c2cc1C` (stereo unspecified), the normalized bacterial growth is 1.17. Under `CCCn1c(=O)c2[nH]c(-c3ccc(OCC(=O)Nc4ccc(C#N)cc4)cc3)nc2n(CCC)c1=O` stands 1.12; under `NCC[C@H](O)C(=O)N[C@@H]1C[C@H](N)[C@@H](O[C@H]2O[C@H](CN)[C@@H](O)[C@H](O)[C@H]2O)[C@H](O)[C@H]1O[C@H]1O[C@H](CO)[C@@H](O)[C@H](N)[C@H]1O` [Amikacin hydrate], 0.266. Molecule `NCC[C@H](O)C(=O)N[C@@H]1C[C@H](N)[C@@H](O[C@H]2O[C@H](CN)[C@@H](O)[C@H](O)[C@H]2O)[C@H](O)[C@H]1O[C@H]1O[C@H](CO)[C@@H](O)[C@H](N)[C@H]1O` displayed a normalized bacterial growth of 1.01. To `COc1ccc2c(c1)OC[C@@H](Cc1ccc(OC)c(OC)c1)[C@H]2O` belongs 0.807.

Consider `NC(C(=O)O)c1cc(O)cc(O)c1` ["(S)-3,5-Dihydroxyphenylglycine"], for which the normalized bacterial growth is 0.951. Under `CN(C/C=C/C#CC(C)(C)C)Cc1cccc2ccccc12` stands 0.649; under `Fc1ccc([C@@H]2CCNC[C@H]2COc2ccc3c(c2)OCO3)cc1` [Paroxetine hydrochloride hemihydrate (MW = 374.83)], 0.796. Under `C=C1CCC2C(CC2(C)C)C(=O)CCC1O` (stereo unspecified) stands 1.06. Under `NC(CO)C(=O)NNCc1ccc(O)c(O)c1O` (stereo unspecified) [Benserazide hydrochloride] stands 0.725; under `C[C@H]1COc2c(N3CCN(C)CC3)c(F)cc3c(=O)c(C(=O)O)cn1c23`, 0.123; under `CN(C)CCCN1c2ccccc2CCc2ccccc21` [Imipramine hydrochloride], 0.963.

Molecule `Cc1cccc(C(=O)NCN2CCN(c3ccccc3C#N)CC2)c1` ["PD 168,077 maleate"] had a normalized bacterial growth of 1.07. Under `O=C(NC1CCCCC1)NC1CCCCC1` stands 1.38; under `CN1CCC(OC(c2ccccc2)c2ccccc2)CC1`, 1.05; under `O=C(Oc1cccc2cccnc12)c1ccccc1`, 0.926. To `C/C=C1\[C@H]2C=C(C)C[C@]1(N)c1ccc(=O)[nH]c1C2` belongs 0.988 and 1.18.

The molecule `C[N+](C)(C)CCO.[Cl-]` yielded a normalized bacterial growth of 1.15. To `Nc1ccc2c3c(cccc13)C(=O)NC2=O` ["4-Amino-1,8-naphthalimide"] belongs 0.993; to `Cc1cc(O)c2c(c1)C(=O)c1cc(O)cc(O)c1C2=O`, 0.973.

In turn, `C[C@H](CCC(=O)O)[C@H]1CC[C@H]2[C@@H]3CC[C@@H]4C[C@H](O)CC[C@]4(C)[C@H]3CC[C@]12C` [Lithocholic acid] showed a normalized bacterial growth of 0.831. Under `C[C@H](CCC(=O)O)[C@H]1CC[C@H]2[C@@H]3CC[C@@H]4C[C@H](O)CC[C@]4(C)[C@H]3CC[C@]12C` stands 1.04.
